Record: PubChem BioAssay AID1259308 (NCATS, 2017)
Test: 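Genes whose loss raises luciferase production in HEK293 cells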 (primary screen). Cells: human HEK293 embryonic kidney cells stably expressing firefly luciferase (HEK-CMV-Luc2-Hygro). Knock-down reagent: single siRNA against human genes, 0.8 pmol siRNA per well. Duration: 72 h. Measurement: 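Reporter luminescence and viable-cell signal on separate replicate plates, given as percent of non-targeting control and median/MAD z-scores, plus per-cell luciferase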. Reading the numbers: total luciferase, z-score: higher = more reporter protein produced. Hit rule: 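Active when the median/MAD z-score for overall luciferase is greater than 3; a gene was taken forward for validation with new siRNAs if at least two of its three siRNAs passed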. Meaning of the calls: active = raised luciferase; inactive = no rise.
Here is a random part of about 59,000 deposited reagents. Of all reagents, about 1,510 (2.6%) were called active. 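Calls use total luciferase alone and ignore viability, so some active siRNAs may act by altering cell number.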 Entries without a mark were called inactive. The numbers tell different reagents against one gene apart. Further read-outs or replicates are left out here. No sequences are given here.

OR5M10 #1 scored total luciferase, z-score 1.69.
Knock-down of OR5M10 #2 gave: total luciferase, z-score -0.147.
After knock-down of OR5M10 #3, the screen gave total luciferase, z-score -0.709.
With knock-down of LINC01547 #1, the record shows total luciferase, z-score -0.287.
Knock-down of LINC01547 #2 resulted in: total luciferase, z-score -0.981.
Depletion of LINC01547 #3 gave: total luciferase, z-score 0.0388.
For LINC01547 #4 the deposit lists total luciferase, z-score 0.58.
LINC01547 #5 scored total luciferase, z-score 0.607.
With knock-down of LINC01547 #6, the record shows total luciferase, z-score 0.442.
After knock-down of KRT27 #1 the results were total luciferase, z-score 0.109.
Knock-down of KRT27 #2 came out at: total luciferase, z-score 0.371.
Knock-down of KRT27 #3 resulted in: total luciferase, z-score 0.0868.
ADAMTS1 #1 showed total luciferase, z-score -0.815.
ADAMTS1 #2 scored total luciferase, z-score 0.124.
Depletion of ADAMTS1 #3 gave: total luciferase, z-score -0.697.

A portion of the results above:
OR5M10 #3 | total luciferase, z-score: -0.709
LINC01547 #1 | total luciferase, z-score: -0.287
LINC01547 #2 | total luciferase, z-score: -0.981
LINC01547 #3 | total luciferase, z-score: 0.0388

Next reagents follow:
PLAAT4 #1 gave total luciferase, z-score 0.532.
With knock-down of PLAAT4 #2 the results were total luciferase, z-score 0.13.
PLAAT4 #3 showed total luciferase, z-score -1.83.
Against GARIN2 #1 the deposit lists total luciferase, z-score 2.51.
Against GARIN2 #2 the deposit lists total luciferase, z-score 2.55.
Silencing of GARIN2 #3 gave: total luciferase, z-score -0.112.
Depletion of IGF2-AS #1 resulted in: total luciferase, z-score -0.82.
After knock-down of IGF2-AS #2, the screen gave total luciferase, z-score -0.00613.
After knock-down of IGF2-AS #3 the results were total luciferase, z-score -0.248.
CORO2B #1 scored total luciferase, z-score 0.153.
Knock-down of CORO2B #2 gave: total luciferase, z-score 0.132.
CORO2B #3 gave total luciferase, z-score -0.488.
SERTAD4 #1 gave total luciferase, z-score 0.299.
Against SERTAD4 #2, the values are total luciferase, z-score -0.0272.
After knock-down of SERTAD4 #3 the results were total luciferase, z-score 0.239.
Against NAGA #1, the values are total luciferase, z-score -2.53.
NAGA #2 gave total luciferase, z-score -2.03.
NAGA #3 scored total luciferase, z-score -0.445.
Depletion of H4C3 #1 gave: total luciferase, z-score 0.237.
With knock-down of H4C3 #2, the screen gave total luciferase, z-score 0.999.
H4C3 #3 scored total luciferase, z-score 0.798.
INTS15 #1 showed total luciferase, z-score 0.463.
With knock-down of INTS15 #2, the screen gave total luciferase, z-score 1.22.
INTS15 #3 gave total luciferase, z-score 0.911.
Against SCNN1G #1, the values are total luciferase, z-score 0.77.
For SCNN1G #2 the deposit lists total luciferase, z-score -1.42.
Silencing of SCNN1G #3 gave: total luciferase, z-score -1.56.
